PubChem BioAssay AID504444 (National Center for Advancing Translational Sciences (NCATS), 2011)
The campaign covered roughly 360,000 compounds. About 7,500 (2.1%) were called active. This list was built around the results that the source calls inconclusive (neither active nor inactive); the mix of calls is not that of the screen. Calls follow the shape of the dose curve; as a rule, active = well fitted inhibition curve with a large enough effect; inconclusive = small, poorly fitted or top-dose-only effect, or effect the other way; inactive = flat fitted curve, though single readings scatter. Potencies of inconclusive entries are doubtful fits and often do not repeat.

assay: Nrf2 qHTS screen for inhibitors; settings: A549 ARE-Fluc reporter, luciferase luminescence, 18-24 h; series mostly up to 46 µM; also: nearly all actives have a fitted effect of over 60% in size
Method in brief: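 A549 ARE_Fluc cells (5000/well, 5% FBS OPTI-MEM) pre-incubated 2 h, then treated with compounds 18-24 h at 37C/5% CO2 in concentration-response. CellTiter-Fluor viability read first; BugLite luciferase luminescence after 15 min at room temperature gives Nrf2 activity.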
Potency is read from the fitted curve at half-maximal effect.

Row | SMILES | Potency
1 | CCn1cc(C(=O)OCC(=O)c2cc(C)n(-c3ccc(OC(F)F)cc3)c2C)c(=O)c2ccc(C)nc21 | inconclusive: 23.1 µM [falling, partial curve, poor fit]
2 | COc1ccc(Cn2c(SCc3ccc(C)cc3)nc3cc(OC)c(OC)cc3c2=N)cc1Cl | inconclusive: 29.1 µM [falling, single point]
3 | Cc1cc(-c2ccc(C)c(S(=O)(=O)NCc3cccs3)c2)on1 | inconclusive: 20.6 µM [falling, single point]
4 | O=C(Nc1cccc(Cl)c1)Nc1ccc2nccnc2c1 | inactive
5 | c1ccc(Sc2cnc3ccccc3n2)cc1 | inconclusive: 20.6 µM [activator, partial curve]
6 | COc1ccc(-c2c(NC(=O)c3ccco3)oc3ccc(Cl)cc3c2=O)cc1 | inconclusive: 29.1 µM [activator, single point]
7 | COc1cccc(CN2CCN(Cc3[nH]c4ccccc4c3C)CC2CCO)c1 (centres undefined) | inconclusive: 9.2 µM [activator, partial curve, poor fit]
8 | CCc1ccc(NS(=O)(=O)c2ccc(OC)c(C)c2)cc1 | inconclusive: 20.6 µM [falling, partial curve]
9 | O=C(CCCSc1nc2ccccc2[nH]1)N1CCN(c2ccc([N+](=O)[O-])cc2)CC1 | inconclusive: 6.51 µM [falling, full curve, poor fit]
10 | C=C(C)COc1ccc(-c2n[nH]c(C)c2-c2ccccc2)c(O)c1 | inconclusive: 16.4 µM [falling, partial curve, poor fit]
11 | COCCN(Cc1cc2cc(C)ccc2nc1Cl)C(=O)Nc1ccccc1OC | inconclusive: 11.6 µM [falling, partial curve]
12 | NS(=O)(=O)c1ccccc1NC(=O)c1c(O)c2ccccc2[nH]c1=O | inconclusive: 1.84 µM [activator, full curve]
13 | CC1CCCC(C)N1/N=C/C=C/c1ccccc1[N+](=O)[O-] (centres undefined) | inconclusive: 18.4 µM [activator, partial curve]
14 | CC1CCCN(S(=O)(=O)c2ccc(NC(=O)[C@@H]3CCCN3C(=O)c3cccs3)cc2)C1 (some centres undefined) | inconclusive: 29.1 µM [falling, single point]
15 | CCS(=O)(=O)c1ncc(Cl)c(C(=O)NCc2ccccc2)n1 | active: 18.4 µM
16 | COc1ccc(Br)cc1/C=C/C(=O)c1ccc(NC(C)=O)cc1 | active: 5.17 µM
17 | O=C(Nc1nc(-c2ccccn2)cs1)C12CC3CC(CC(O)(C3)C1)C2 | inconclusive: 2.91 µM [activator, full curve]
18 | CCN(CC)CCOc1c(Br)ccc2c1sc1nc3n(c(=O)c12)CCC3 | inconclusive: 20.6 µM [falling, partial curve]
19 | Cc1ccc(N2C(=O)C3C(C2=O)C2C=CC3C23CC3)c([N+](=O)[O-])c1 (centres undefined) | inconclusive: 0.184 µM [activator, full curve, poor fit]
20 | O=C(Nc1cc(F)ccc1F)c1ccc(CN2CC(=O)N3CCCCC3C2=O)cc1 (centres undefined) | inactive
21 | Cc1nc2ccccc2nc(C)c1=NOCc1cccc(F)c1 | inconclusive: 16.4 µM [activator, single point]
22 | CCc1ccc(-c2nnn(CCC(=O)OC)n2)cc1 | active: 3.26 µM

Three of these compounds, set out differently.
COc1cccc(CN2CCN(Cc3[nH]c4ccccc4c3C)CC2CCO)c1 (centres undefined)
  Potency: inconclusive: 9.2 µM [activator, partial curve, poor fit]
CCc1ccc(NS(=O)(=O)c2ccc(OC)c(C)c2)cc1
  Potency: inconclusive: 20.6 µM [falling, partial curve]
O=C(CCCSc1nc2ccccc2[nH]1)N1CCN(c2ccc([N+](=O)[O-])cc2)CC1
  Potency: inconclusive: 6.51 µM [falling, full curve, poor fit]

Continuation.

Row | SMILES | Potency
23 | COc1ccc(CCNC(=O)/C(=C/c2cccnc2)NC(=O)c2ccccc2)cc1 | inconclusive: 29.1 µM [falling, single point]
24 | OC(c1cc(-c2cccc(Cl)c2)nc2ccccc12)C1CCCCN1 (centres undefined) | inconclusive: 7.31 µM [activator, partial curve, poor fit]
25 | O=C(NCCN1CCOCC1)c1cc(-c2cccs2)on1 | inconclusive: 16.4 µM [activator, single point]
26 | Cc1ccc2c(N)c(C(=O)c3ccccc3)sc2n1 | inconclusive: 29.1 µM [activator, single point]
27 | CCOC(=O)[C@@H]1[C@H]2COc3cc(OC)ccc3[C@H]2N2C(=O)N(c3ccc(C(F)(F)F)cc3)C(=O)[C@]12C | active: 20.6 µM
28 | CC1CCN(CCCCOc2ccc(F)cc2)CC1 | inconclusive: 0.58 µM [activator, full curve, poor fit]
29 | O=C(Nc1ccc2c(c1)nc1n2CCOC1)C1CCCCC1 | inconclusive: 29.1 µM [activator, single point]
30 | O=C(CNC(=O)c1ccccc1)OCc1cc(=O)n2nc(C3CC3)sc2n1 | inconclusive: 23.1 µM [activator, partial curve, poor fit]
31 | COc1ccccc1NC(=O)c1cc2n(n1)C(C(F)(F)F)CC(c1ccc3c(c1)OCO3)N2 (centres undefined) | inconclusive: 13 µM [falling, single point]
32 | Cc1nn(-c2ccc(F)cc2)c(Cl)c1/C=C1\C(=O)Nc2ccccc21 | inconclusive: 20.6 µM [falling, single point]
33 | O=C(O)C1OC1(c1ccccc1Cl)c1ccccc1Cl (centres undefined) | inactive
34 | O=c1c2oc3ccccc3c2n(Cc2ccc(Cl)cc2)c(=O)n1Cc1ccccc1 | inconclusive: 23.1 µM [activator, single point]
35 | CCC1CCCCN1C(=O)CCS(=O)(=O)c1cc2c(cc1C)NC(=O)CO2 (centres undefined) | inconclusive: 23.1 µM [falling, single point]
36 | CC(C)n1cnc2c(Nc3cccc(Cl)c3)nc(N(CCO)CCCO)nc21 | inconclusive: 18.4 µM [falling, single point]
37 | O=C(NCCC1=CCCCC1)c1cnc2n(c1=O)CCS2 | inactive
38 | CCCCN1C(=O)C(=Nc2cccc3cnccc23)c2ccccc21 | inconclusive: 14.6 µM [falling, partial curve]
39 | CCOc1ccc2nc(SCC(=O)N3CCCCCC3)c(C#N)cc2c1 | inconclusive: 0.731 µM [activator, full curve, poor fit]
40 | COc1ccc(N2CCN(c3ncnc4c3cnn4-c3ccc(C)cc3C)CC2)cc1 | inconclusive: 1.16 µM [falling, full curve, poor fit]
41 | CN(C(=O)COC(=O)c1ccc(Cl)cc1N)C1CCCCC1 | inconclusive: 18.4 µM [activator, single point]
42 | COC(=O)/C=C/c1ccc(OC(=O)OC)c(OC(=O)OC)c1 | inactive
43 | CC(=O)N1c2ccc(S(=O)(=O)N3CCCC(C(=O)NCc4ccccc4)C3)cc2CC1C (centres undefined) | inconclusive: 23.1 µM [falling, partial curve, poor fit]
44 | S=C1NC[C@H](c2ccccc2)N1CCCCC1CCCCC1 | inactive

Row | SMILES | Potency
45 | CCn1c(C)c(C(C)=O)c(N2CCN(C(c3ccccc3)c3ccccc3)CC2)nc1=S | inconclusive: 20.6 µM [falling, partial curve, poor fit]
46 | Cc1ccnc(N/C=C(/NC(=O)c2ccccc2)C(=O)N/N=C\c2ccc(Cl)cc2)n1 | inconclusive: 20.6 µM [falling, single point]
47 | CCCc1cc(=O)[nH]c(SCc2cc(=O)oc3cc(C)c(C(C)C)cc23)n1 | inactive
48 | Cc1ccc(-c2nc(CSCC(=O)NCC3CCCO3)c(C)o2)cc1 (centres undefined) | inconclusive: 29.1 µM [activator, single point]
49 | O=C(COc1ccc(Br)cc1Cl)NC(=S)N1CCc2ccccc21 | inconclusive: 20.6 µM [activator, partial curve]
50 | CCOC(=O)c1cnc(-n2cc(C)cn2)nc1Nc1ccccc1OCC | inconclusive: 14.6 µM [falling, partial curve, poor fit]
51 | Cc1ccc(NC(=O)C(=O)c2c(-c3ccccc3)cc3ccccn23)cc1S(=O)(=O)N1CCOCC1 | inconclusive: 18.4 µM [falling, partial curve, poor fit]
52 | C=C(C)Cn1c(SCC(=O)c2ccccc2)nc2sc3c(c2c1=O)CCCC3 | inconclusive: 23.1 µM [activator, single point]
53 | CCOC(=O)C1CCCC(NS(=O)(=O)c2ccc(NC(C)=O)cc2)C1 (centres undefined) | inactive
54 | COc1ccccc1CNC(=O)c1cccc(S(=O)(=O)N2CCN(c3ccc(F)cc3)CC2)c1 | inconclusive: 1.3 µM [falling, full curve, poor fit]
55 | CCOc1ccccc1Nc1nnc(SC(C)C(=O)Nc2nc(-c3ccccc3)cs2)s1 (centres undefined) | inconclusive: 23.1 µM [activator, partial curve]
56 | CC(=O)c1ccc(NC(=O)CSc2nnc(N)s2)cc1 | inconclusive: 8.2 µM [activator, partial curve, poor fit]
57 | CC1=CC(=O)C(C(C)C)=C/C1=C(\c1cc(C(C)C)c(OP(=O)(O)O)cc1C)c1ccccc1C(=O)O | inconclusive: 29.1 µM [falling, single point]
58 | Cc1cccc(OCC(=O)N/N=C\C=C\c2ccc3c(c2)OCO3)c1C | inconclusive: 2.91 µM [falling, full curve, poor fit]
59 | Cc1ccc(S(=O)(=O)Nc2cccc3ncccc23)cc1 | inactive
60 | Cc1sc2ncnc(NCC3CCCO3)c2c1C (centres undefined) | active: 20.6 µM
61 | CCOc1ccc(NC(=O)c2sc3nc(N4CCOCC4)c4c(c3c2N)CC(C)(C)OC4)cc1 | inconclusive: 25.9 µM [falling, partial curve, poor fit]
62 | COc1cc(C(=O)NCC(=O)N/N=C(C)\C=C\c2ccccc2)cc(OC)c1OC | inconclusive: 29.1 µM [falling, single point]
63 | Cc1ccc(COC(=O)c2cc(S(=O)(=O)N3CCCCC3)ccc2N2CCOCC2)cc1 | inconclusive: 9.2 µM [falling, partial curve, poor fit]
64 | O=C(Nc1cccc(C(F)(F)F)c1)C1CCN(S(=O)(=O)c2cccs2)CC1 | inconclusive: 16.4 µM [falling, single point]
